Test: Volatile nitrogen (ammonia) release from fertilizer applied to moistened soil
Settings: 28° C., 15% moisture, 180 lb N/acre

Q: What does the source list for NC(N)=O [Urea, urea]?
A: Percent Urea Nitrogen Lost at 2 days (soil sample 1, pH 7.2): 52.3%; Percent Urea Nitrogen Lost at 4 days (soil sample 1, pH 7.2): 59.2%; Percent Urea Nitrogen Lost at 2 days (soil sample 2, pH 4.0): 21.6%; Percent Urea Nitrogen Lost at 4 days (soil sample 2, pH 4.0): 24.9%; Percent Urea Nitrogen Lost at 2 days (soil sample 3, pH 4.9): 34.0%; Percent Urea Nitrogen Lost at 4 days (soil sample 3, pH 4.9): 37.1%; Percent Urea Nitrogen Lost at 2 days (soil sample 4, pH 5.0): 31.1%; Percent Urea Nitrogen Lost at 4 days (soil sample 4, pH 5.0): 34.0%
